# US20040038828A1 (priority 2002, published 2004)
# Some results were stated once for a whole list of compounds, not compound by compound. For at least one compound, name, drawing or mass did not settle the structure.
# How the values were obtained:
# [1] = test system: Pythium spp; format: in vivo; conditions: Salinas; preplant fumigation
# [2] = test system: native weed population; format: in vivo; conditions: Salinas
structure (smiles),measurement,setting,value
OCCBr [2-bromoethanol],reduction of the population of Pythium spp,[1],> 90%
same,control of total weeds,[2],more than 50%
